# Out of some 310,000 compounds screened, about 17,000 (5.5%) were called active. Inconclusive means that the source gave no clear call. Such entries were picked first, then a sample of the others. Calls come from the whole dose curve; as a rule, active = well fitted inhibition curve with a large enough effect; inconclusive = small, poorly fitted or top-dose-only effect, or effect the other way; inactive = no such curve, though single readings can be large or run the other way. Potencies of inconclusive entries are doubtful fits and often do not repeat.
# Chains of the proteins cited; added tags and fusions are not shown. Lines headed by an entry give the natural chain unless they say otherwise; changes in a name come on top.
# UniProt P51450: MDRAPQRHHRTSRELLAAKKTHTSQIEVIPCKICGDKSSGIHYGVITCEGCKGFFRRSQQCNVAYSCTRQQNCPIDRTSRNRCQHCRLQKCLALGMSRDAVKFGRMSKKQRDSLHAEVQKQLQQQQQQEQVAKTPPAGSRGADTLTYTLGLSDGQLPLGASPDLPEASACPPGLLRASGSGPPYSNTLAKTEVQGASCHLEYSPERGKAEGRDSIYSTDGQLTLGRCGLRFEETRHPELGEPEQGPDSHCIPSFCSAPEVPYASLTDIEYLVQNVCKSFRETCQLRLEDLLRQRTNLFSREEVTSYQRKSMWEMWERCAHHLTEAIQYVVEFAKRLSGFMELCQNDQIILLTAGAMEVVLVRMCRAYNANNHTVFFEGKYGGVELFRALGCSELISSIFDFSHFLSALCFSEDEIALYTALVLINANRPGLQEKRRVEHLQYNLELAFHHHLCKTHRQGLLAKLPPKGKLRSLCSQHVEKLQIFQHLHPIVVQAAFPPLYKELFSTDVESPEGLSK
# Biological target: Nuclear receptor ROR-gamma (Mus musculus) (UniProt P51450)
# Assay: qHTS for inhibitors of ROR gamma transcriptional activity; note: nearly all actives have a fitted effect of over 60% in size
# Conditions: Drosophila S2 Gal4-RORgamma UAS-luciferase reporter, 20 h; activity change, negative = inhibition: at 53.6 µM (top of the series)
# Outline: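 Stably transfected Drosophila Schneider cells are the test system, with ROR gamma fused to Gal4 and luciferase under UAS control; luminescence is read after 20 hr of 700 uM copper sulfate induction at ambient temperature.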
# % is set by controls: 0 for no effect and ±100 for the full control effect; potency is the fitted concentration of half-maximal effect.
Structure (SMILES),Potency,"activity change, negative = inhibition"
Cc1cc(OCC(=O)N2CCc3ccccc3C2)c(C)cc1Br,"inconclusive: 15.8 µM [activator, single point]",–
Cc1ccc(Nc2nc3c(s2)CCC3)c(C)c1,"inconclusive: 17.8 µM [inhibitor, single point]",–
C/C(=N\NC(=O)Cc1ccc(Cl)cc1)c1ccccc1O,active: 0.282 µM,–
CCC(Oc1ccc(Br)cc1Cl)C(=O)Nc1nnc(C2CC2)s1 (configuration not stated),active: 12.6 µM,–
Cc1ccc2c(c1)c(-c1csc(N)n1)c(C)n2C,inactive,–
O=C(O)c1ccc(/C=C2\COc3ccccc3C2=O)cc1,active: 7.08 µM,–
CC(OC(=O)C1CCN(c2ccc(C(F)(F)F)cn2)CC1)C(=O)Nc1ccc(S(N)(=O)=O)cc1 (configuration not stated),"inconclusive: 11.2 µM [activator, partial curve]",–
CC1(C)C(=O)OC(/C=C\c2cccc([N+](=O)[O-])c2)C(C)(C)C1=O (configuration not stated),inactive,–
COc1cccc(/C=N/NC(=O)c2cc3cc([N+](=O)[O-])ccc3s2)c1O,active: 1.41 µM,–
O=C1C(=C(O)c2ccccc2)C(=O)c2ccccc21,"inconclusive: 15.8 µM [inhibitor, single point]",–
O=C1C(c2ccnc3ccccc23)=C(O)c2ccccc21,active: 5.01 µM,–
Cc1ccc(Cl)cc1NC(=S)N/N=C/c1cccc2ccccc12,active: 0.794 µM,–
O=C(N/N=C/C(Cl)=C\c1ccccc1)c1cnccn1,inactive,–
CC(=O)Nc1ccc(OCCCNC(=O)c2c(-c3ccccc3)noc2C)cc1,"inconclusive: 17.8 µM [activator, single point]",–
Cc1cccc(C)c1NC(=S)N/N=C/c1c(Cl)cccc1Cl,active: 0.501 µM,–
Nc1nc(SCC(=O)N2CCCCCC2)[nH]c(=O)c1NC(=O)c1ccco1,inactive,–
Cc1c(C(=O)O)sc2nc(SCC(=O)Nc3ccc(S(=O)(=O)NC(C)(C)C)cc3)[nH]c(=O)c12,"inconclusive: 6.31 µM [activator, single point]",–
COc1cccc(-c2nccc(NCCc3c[nH]c4ccc(OC)cc34)n2)c1,"inconclusive: 15.8 µM [activator, single point]",–
O=C(NNC(=O)C12CC3CC(CC(C3)C1)C2)c1ccccc1[N+](=O)[O-],"inconclusive: 35.5 µM [inhibitor, single point]",–
O=S(=O)(NCCO)c1ccc2c(c1)Cc1cc(S(=O)(=O)NCCO)ccc1-2,inactive,–
Nc1nonc1-n1nnc(C(=O)N/N=C/c2ccccc2F)c1CN1CCc2ccccc21,"inconclusive: 14.1 µM [inhibitor, single point]",–
CCc1ccc(S(=O)(=O)NCCc2csc(-c3cccnc3)n2)s1,"inconclusive: 7.08 µM [activator, partial curve]",–
CC1(C)CC(=O)CC(C2(O)C(=O)N(Cc3ccccc3)c3ccccc32)O1 (configuration not stated),inactive,–
Cc1c(C(c2ccc(Br)cc2)c2c(C)n(C)n(-c3ccccc3)c2=O)c(=O)n(-c2ccccc2)n1C,"inconclusive: 12.6 µM [activator, single point]",–

Structure (SMILES),Potency,"activity change, negative = inhibition"
COc1ccc(OC)c(C(=O)c2ccc(C(=O)Nc3ccc4ccccc4c3)cc2)c1,"inconclusive: 10 µM [activator, partial curve]",–
CCC1CCCCN1S(=O)(=O)c1ccc(C(=O)Nc2nnc(C3CC3)o2)cc1 (configuration not stated),active: 0.316 µM,–
O=S(=O)(Nc1ccn(-c2ccccc2)n1)c1ccc(Br)cc1,"inconclusive: 22.4 µM [activator, single point]",–
CCC(=O)Nc1c(-c2ccc(OC)cc2)c(=O)c2ccccc2n1C,"inconclusive: 5.62 µM [activator, single point]",–
Fc1ccc(-[n+]2nc(Nc3ccccc3)sc2-c2c3ccccc3cc3ccccc23)cc1,active: 10 µM,–
Cc1nc2ccc(S(=O)(=O)NCC(=O)NC(C)c3ccccc3)cc2s1 (configuration not stated),inactive,–
CC(C)CCNC(=O)NC(=O)COC(=O)/C=C/c1cnc2ccccc2n1,"inconclusive: 15.8 µM [activator, single point]",–
Cc1onc(-c2c(F)cccc2Cl)c1C(=O)N1CCCCC1,inactive,–
COc1ccc(-c2cc(C(=O)NCC(c3ccccc3)N(C)C)c3ccccc3n2)cc1OC (configuration not stated),inactive,–
Cc1ccccc1CSc1n[nH]c(NS(=O)(=O)c2ccccc2)n1,"inconclusive: 2.51 µM [activator, partial curve, poor fit]",–
CN(C)S(=O)(=O)c1cccc(NC(=S)N/N=C/c2ccc(O)c(O)c2O)c1,"inconclusive: 17.8 µM [inhibitor, single point]",–
Cc1ccc2c(C(=O)CN3CCN(C(=O)c4ccco4)CC3)c(C)[nH]c2c1,"inconclusive: 12.6 µM [activator, single point]",–
COc1ccc(NC(C)=O)cc1NC(=O)CSc1nc2ncccc2[nH]1,–,inactive: 7.29% [at 10 µM]
COc1ccccc1NC(=S)NCc1cccs1,"inconclusive: 22.4 µM [inhibitor, single point]",–
COc1ccc(OCc2cc(C(=O)N(C)C(C)c3ccon3)no2)c(Cl)c1 (configuration not stated),"inconclusive: 5.01 µM [activator, partial curve]",–
CS(=O)(=O)Nc1cccc(C2=NN(C(=O)c3ccccc3Cl)C(c3ccccc3O)C2)c1 (configuration not stated),"inconclusive: 31.6 µM [activator, single point]",–
Cc1ccc2cccc(N=Cc3c(C)[nH]n(-c4ccccc4)c3=O)c2n1,active: 1 µM,–
CS(=O)(=O)Nc1ccc(C2=NN(S(=O)(=O)c3ccccc3)C(c3cccs3)C2)cc1 (configuration not stated),"inconclusive: 12.6 µM [activator, single point]",–
CC1=C(n2nnc([N+](=O)[O-])n2)C(c2cccnc2)C(C#N)=C(N)O1 (configuration not stated),"inconclusive: 15.8 µM [inhibitor, single point]",–
Cc1cc(N=Cc2c(O)n(-c3cccc(Cl)c3)c(=O)c3ccccc23)no1,inactive,–
COc1ccc(C(C)NC(=O)Cc2cccs2)cc1OC (configuration not stated),inactive,–
CCOC(=O)C1=C(C)Nc2sc(C(=O)c3ccc(OC)cc3)c(N)c2C1c1ccc(C(=O)OC)cc1 (configuration not stated),inactive,–
CCCCNc1nc2c(c(=O)n(C)c(=O)n2C)n1CCC,"inconclusive: 15.8 µM [activator, partial curve]",–

# One compound at a time, as listed above:
# CN(C)S(=O)(=O)c1cccc(NC(=S)N/N=C/c2ccc(O)c(O)c2O)c1 reads Potency: inconclusive: 17.8 µM [inhibitor, single point]
# Cc1onc(-c2c(F)cccc2Cl)c1C(=O)N1CCCCC1 reads Potency: inactive
# Cc1cc(N=Cc2c(O)n(-c3cccc(Cl)c3)c(=O)c3ccccc23)no1 reads Potency: inactive

# From PubChem BioAssay AID2551 (National Center for Advancing Translational Sciences (NCATS), 2010)
